In patent publication US5625031A, “Peptide inhibitors of the p33^cdk2 and p34^cdc2 cell cycle regulatory kinases and human papillomavirus E7 oncoprotein” (Bristol-Myers Squibb Company, priority 1994, dated 1997):
Like-named read-outs stand apart in the source and are kept apart here. At least one peptide structure holds a part that was inferred or is arguable (an end, a ring closure or a residue). Where a SMILES comes first, the peptide text is derived from it. Where no end group is shown, it is not given here.

Chains of the proteins cited; added tags and fusions are not shown. Lines headed by an entry give the natural chain unless they say otherwise; changes in a name come on top.
UniProt P06788: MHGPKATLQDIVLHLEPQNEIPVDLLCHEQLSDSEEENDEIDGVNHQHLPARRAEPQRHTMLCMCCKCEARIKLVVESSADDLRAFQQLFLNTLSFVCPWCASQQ
UniProt P06493, whole entry: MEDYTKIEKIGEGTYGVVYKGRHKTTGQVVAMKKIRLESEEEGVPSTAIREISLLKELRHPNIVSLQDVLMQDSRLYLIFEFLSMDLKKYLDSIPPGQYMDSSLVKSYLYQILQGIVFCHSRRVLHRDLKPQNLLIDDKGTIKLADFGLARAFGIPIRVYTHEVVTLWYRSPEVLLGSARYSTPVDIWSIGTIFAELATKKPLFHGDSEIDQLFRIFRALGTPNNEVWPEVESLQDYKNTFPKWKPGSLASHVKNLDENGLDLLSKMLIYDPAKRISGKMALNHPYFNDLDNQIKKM

Experiments:
HPV18-E7 protein = target: T1, HPV18-E7 protein (Human papillomavirus type 18, UniProt P06788); format: binding; conditions: bacterially expressed MBP-E7 fusion protein, ELISA
T1 construct: made in house
Protocol: The association of bacterially expressed HPV18-E7 protein with the p107 30mer peptide was analyzed using an ELISA assay. In the experiment depicted in FIG. 3A, a 96-well cluster plate was coated with p107 30mer peptide and incubated with increasing concentration of a MBP-E7 fusion protein or the MBP protein as a control. […] In the experiment depicted in FIG. 3B, MBP-E7 fusion protein (100 ng) was incubated with a p107 30mer peptide-coated plate in the presence of increasing concentrations of free p107 9mer peptide.

p34^cdc2 [1] = target: T2, p34^cdc2 (Homo sapiens, UniProt P06493); experiment: Peptide inhibition of p34^cdc2 immune complex histone H1 kinase activity; format: biochemical; parameters: endogenous in cells; host or cells: HeLa
Protocol: HeLa Cell Lysates: HeLa cell extracts served as a source of p34^cdc2 and p33^cdk2 and were prepared as follows. HeLa cells were lysed in 20 mM N-[2-hydroxyethyl]piperazine-N'-[2-[…]] (HEPES), pH 7.0, 150 mM NaCl, 5 mM sodium vanadate, 10 mM Na4 P2 O7, 1 mM ZnCl2, 2 mM ethylene-diaminetetraacetic acid (EDTA), 2 mM ethylene glycol-bis(β-aminoethyl ether)-N,N,N',N'-tetraacetic acid (EGTA), 1 mM dithiothreitol (DTT), 0.25% (v:v) NP-40, 1 mM Benzamidine, 1 mM phenylmethylsulfonyl fluoride (PMSF) and 20 μg/ml each: N2 S2 O3, leupeptin, Antipan and Pepstatin, followed by centrifugation to remove cell debris. […]
Assay of p34^cdc2 Kinase Activity: Histone H1 kinase reactions were performed in 50 mM Tris, pH 8.0, 10 mM MgCl2, 0.5 mM DTT, 1 mM EGTA plus 0.1 mM ATP, 1 μCi γ-[^32 P]-ATP and 10 μg histone H1 (Boeringer Mannheim), and a source of p34^cdc2. […] The bands were detected by autoradiography and the amount of ^32 P incorporated was quantitated using an Ambis Radioanalytic Imaging System.
As a further test of the association of p107 with p34^cdc2, and to define the minimal sequence necessary for interaction with p34^cdc2, the effect of p107 peptides on the p34^cdc2 immune complex histone H1 kinase activity was assessed. […]

p34^cdc2 [2] = target: T2, p34^cdc2; experiment: p107 30mer-sepharose pull-down from HeLa cell lysate, western blot with anti-p34^cdc2 antibody; format: binding; parameters: endogenous in cells; host or cells: HeLa
Protocol: HeLa Cell Lysates: HeLa cell extracts served as a source of p34^cdc2 and p33^cdk2 and were prepared as follows. HeLa cells were lysed in 20 mM N-[2-hydroxyethyl]piperazine-N'-[2-[…]] (HEPES), pH 7.0, 150 mM NaCl, 5 mM sodium vanadate, 10 mM Na4 P2 O7, 1 mM ZnCl2, 2 mM ethylene-diaminetetraacetic acid (EDTA), 2 mM ethylene glycol-bis(β-aminoethyl ether)-N,N,N',N'-tetraacetic acid (EGTA), 1 mM dithiothreitol (DTT), 0.25% (v:v) NP-40, 1 mM Benzamidine, 1 mM phenylmethylsulfonyl fluoride (PMSF) and 20 μg/ml each: N2 S2 O3, leupeptin, Antipan and Pepstatin, followed by centrifugation to remove cell debris.
In order to test whether the α-helix II domain is involved in the interaction of Rb, p107 and cyclin E with p34^cdc2, a 30 amino acid peptide from p107 (residues 692-721: […] [SEQ ID NO:11]) encompassing α-helix II, was synthesized and assayed for its ability to associate with p34^cdc2. […] The concentration of 30mer linked to the bead was 0.85 μmole/ml as determined by HPLC. […] The bound proteins were eluted with increasing concentrations of NaCl, separated by sodium dodecyl sulfate-polyacrylamidegel electrophoresis (SDS-PAGE) (12.5% gel) and transferred to polyvinylidene difluoride (PVDF) membranes. p34^cdc2 was detected by probing the membrane with anti-p34^cdc2 antibody, G6 (Gibco, BRL) (see, Draetta et al. (1988), supra).

p33^cdk2 [3] = target: T3, p33^cdk2 (Homo sapiens, UniProt P24941); experiment: p33^cdk2 kinase reaction with added p107 peptides; format: biochemical
T3 construct: p107 30mer-sepharose beads were incubated with HeLa cell extract; endogenous in cells; host or cells: HeLa

E7-Rb complex = target: T4, E7-Rb complex (Human papillomavirus type 18, UniProt P06788); experiment: ELISA assay of competition for E7-Rb complex formation; format: binding; conditions: MBP-E7 coated plate, 100 ng Rb, increasing peptide concentrations
T4 construct: made in house; host or cells: bacteria (MBP-E7); baculovirus system (Rb)
Protocol: To examine the effect of p107 peptide binding upon the E7-Rb interaction, an ELISA assay was used to monitor E7-Rb complex formation. 96-well cluster plates were coated with either MBP-E7 protein (O) or MBP alone as a control (.circle-solid.). The plates were incubated with increasing concentrations of baculovirus expressed Rb which was detected with monoclonal antibody αRb349 (Pharmingen, San Diego Calif.) (FIG. 4A). In a separate experiment, 96-well cluster plates were coated with MBP-E7 protein and incubated with 100 ng Rb in the presence of increasing concentrations of p107 9mer peptide (FIG. 4B). Binding is quantitated as an increase in optical density at 405 nm. […] A corresponding peptide from Rb protein (sequence MCSMYGICK [SEQ ID NO: 2]) also binds to the E7 oncoprotein and competes for the E7-Rb interaction.

p33^cdk2 [4] = target: T3, p33^cdk2; experiment: p107 30mer-sepharose pull-down from HeLa cell extract, western blot with anti-p33^cdk2 antibody; format: binding; conditions: listed as FEFTLVHCPDLMKDRHLDQLLLCAFYIMAK

## CC[C@H](C)[C@H](NC(=O)[C@H](Cc1ccc(O)cc1)NC(=O)[C@H](Cc1ccccc1)NC(=O)[C@H](C)NC(=O)[C@H](CS)NC(=O)[C@H](CC(C)C)NC(=O)[C@H](CC(C)C)NC(=O)[C@H](CC(C)C)NC(=O)[C@H](CCC(N)=O)NC(=O)[C@H](CC(=O)O)NC(=O)[C@H](CC(C)C)NC(=O)[C@H](Cc1c[nH]cn1)NC(=O)[C@H](CCCNC(=N)N)NC(=O)[C@H](CC(=O)O)NC(=O)[C@H](CCCCN)NC(=O)[C@H](CCSC)NC(=O)[C@H](CC(C)C)NC(=O)[C@H](CC(=O)O)NC(=O)[C@@H]1CCCN1C(=O)[C@H](CS)NC(=O)[C@H](Cc1c[nH]cn1)NC(=O)[C@@H](NC(=O)[C@H](CC(C)C)NC(=O)[C@@H](NC(=O)[C@H](Cc1ccccc1)NC(=O)[C@H](CCC(=O)O)NC(=O)[C@@H](N)Cc1ccccc1)[C@@H](C)O)C(C)C)C(=O)N[C@@H](CCSC)C(=O)N[C@@H](C)C(=O)N[C@@H](CCCCN)C(=O)O [30mer] (H-FEFTLVHCPDLMKDRHLDQLLLCAFYIMAK-OH)
HPV18-E7 protein; listed as 30mer peptide
  binding to HPV18-E7 protein: binds
HPV18-E7 protein; listed as p107 30mer peptide
  binding to HPV18-E7 protein: can bind directly
p34^cdc2 [1]
  inhibition of p34^cdc2 histone H1 kinase activity (in words): inhibits
p34^cdc2 [2]
  binding to p34^cdc2: bind
p33^cdk2 [3]
  inhibition of p33^cdk2 kinase activity: inhibits
E7-Rb complex
  competition for E7 association with Rb: inhibits E7 binding to Rb
p33^cdk2 [4]
  binding to p33^cdk2: bind

## LCAFYIMAK [9mer, LCAFYIMAK]
E7-Rb complex
  competition for E7 association with Rb: effectively competes
